Test results as given in publication PMC3912011.
Results are given in words; binding and its absence hold for the method and conditions named. Binding seen in cells or lysates may run through a third protein. A yes stands for co-enrichment or nearness to the bait. Other partners may have been found. Sequences can lack the tags named with a protein. Values belong to the molecule of their own block, whether it stands above or below them.

Molecular target: T1, GCDH His6-fusion protein (human glutaryl-CoA dehydrogenase, mature enzyme) (human) (UniProt Q92947)
T1 sequence: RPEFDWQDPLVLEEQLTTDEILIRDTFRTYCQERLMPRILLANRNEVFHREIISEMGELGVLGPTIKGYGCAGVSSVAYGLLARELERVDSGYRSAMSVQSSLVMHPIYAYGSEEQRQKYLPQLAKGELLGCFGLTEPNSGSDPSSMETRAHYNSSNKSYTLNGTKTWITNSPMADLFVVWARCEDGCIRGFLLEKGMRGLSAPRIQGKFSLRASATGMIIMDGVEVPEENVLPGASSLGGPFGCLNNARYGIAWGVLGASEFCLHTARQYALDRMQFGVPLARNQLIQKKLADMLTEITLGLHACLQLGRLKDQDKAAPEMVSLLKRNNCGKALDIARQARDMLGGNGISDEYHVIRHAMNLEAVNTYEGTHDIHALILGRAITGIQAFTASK
Assay: affinity purification with mass spectrometry; GCDH-His6 coupled covalently to Affi-Gel 10; 1 mg pig liver mitochondrial matrix protein extract, 12 h at 4°C; wash with 50 mM Hepes pH 7.5, 5 mM KCl, 120 mM NaCl; elution with 1.5 M NaCl; LC-MS/MS of the eluate; only the target purified

Molecule: ATP synthase subunit beta
- binding: binds

B1: aldehyde dehydrogenase 2 (enzyme, UniProt Q2XQV4 22-521)
chain: SAAPTQAVPAPNQQPEIFYNQIFINNEWHDAISKKTFPTVNPSTGDVICHVAEGDKEDVDRAVEAARAAFQLGSPWRRLDASDRGRLLNRLADLIERDRTYLAALETLDNGKPYVISYLVDLDMVLKCLRYYAGWADKYHGKTLPIDGDYFSYTRHEPVGVCGQIIPWNFPLLMQAWKLGPALATGNVVVMKVSEQTPLTALYVANLIKEAGFPPGVVNIVPGYGPTAGAAIASHEDVDKVAFTGSTEVGHLIQVAAGKSNLKRVTLELGGKSPNIIMSDADMDWAVEQAHFALFFNQGQCCCAGSRTFVQEDIYAEFVERSVARARSRVVGNPFDSRTEQGPQIDETQFKKILGYIKSGKEEGAKLLCGGGAAADRGYFIQPTVFGDVQDGMTIAKEEIFGPVMQILKFKTIEEVIGRANNSKYGLAAAVFTKDLDKANYLSQALQAGTVWVNCYDVFGAQSPFGGYKLSGSGRELGEYGLQAYTEVKTVTVKVPQKNS
- binding: binds

The next lines start with the values.

- binding: binds
Molecule: thioredoxin-dependent peroxide reductase (enzyme)

- binding: binds
Molecule: ATP synthase subunit alpha (from UniProt P80021)

- binding: binds
B2: electron transfer flavoprotein subunit beta (pig liver mitochondrial matrix) (protein, UniProt Q6UAQ8 1-255)
chain: MAELRALVAVKRVIDFAVKIRVKPDRTGVVMDGVKHSMNPFCEIAVEEAVRLKEKKLVKEVIAVSCGPAQCQETIRTALAMGADRGIHVEVPAAEAHHLGPLQVARVLAKLAQKEKVDLVLLGKQAIDDDCNQTGQMTAGFLDWPQGTFASQVTLEGDKVKVEREIDGGLETLRLKLPAVVTADLRLNEPRYATLPNIMKAKKKKIEVIKAGDLGVDLTSKLSVVSVEDPPQRVAGVKVETTEDLVAKLREIGRI
